# According to PubChem BioAssay AID248 (DTP/NCI, 2004):
# The list shows only some results of the screen, not a fair sample: it is rich in T/C values a quarter to a half above the control, in often repeated tests (any T/C) and in doses without a T/C. Further doses and runs are listed elsewhere. T/C: endpoint of the treated group in % of that of the vehicle group. Some doses have a count of surviving animals in place of a T/C: the source holds a T/C of zero for them, seemingly a mark for toxic or unscored doses. Some doses without a T/C left all or most animals alive at the check, yet need not have been tolerated: survival well below the control is almost never listed, so the zero probably covers shortened survival too. Survivors were counted at the toxicity check, usually on the fifth day, unless a day is given; later deaths do not show. Schedule codes are those of the source, read here as Q, the interval in days (D) or hours (H), X, the number of doses. Some doses were run more than once; their values stand side by side, smallest first. Some schedule codes hold Z or #, which are not explained here. For survival time, this PubChem deposit counts one and a half times the control or more as active, and values a quarter to a half above the control carry no call in these data; other NCI protocols may use other cut-offs. Counts like (3×) say how often a value occurs here. Some T/C values are followed by the survivors on the day toxicity was checked, most often the fifth; without a count, all were alive then.
# Test system: L1210 leukemia ip in BDF1 mice, survival T/C
# Assay: NCI In Vivo Anticancer Drug Screen. Data for tumor model L1210 Leukemia (intraperitoneal) in B6D2F1 (BDF1) mice
# Conditions: T/C endpoint: mean survival time, higher T/C = longer survival
# [1] = dose: 250.0 mg/kg/injection, schedule: Q01DX005 (ip), vehicle: clinical formulation
structure (smiles),measurement,setting,value
CN(C)/N=N/c1nc[nH]c1C(N)=O,T/C,"dose: 105.0 mg/kg/injection, schedule: Q01DX015 (ip), vehicle: carboxymethylcellulose (CMC), evaluated on day 45",140 % of control
same,T/C,"dose: 108.0 mg/kg/injection, schedule: Q01DX009 (ip), vehicle: steroid suspending solution",134 % of control (2×)
same,T/C,"dose: 108.0 mg/kg/injection, schedule: Q01DX019 (ip), vehicle: steroid suspending solution, evaluated on day 5",143 % of control
same,T/C,"dose: 108.0 mg/kg/injection, schedule: Q01DX019 (ip), vehicle: steroid suspending solution, evaluated on day 30",139 % of control
same,T/C,"dose: 108.0 mg/kg/injection, schedule: Q01DX Z (ip), vehicle: steroid suspending solution, evaluated on day 33",134 % of control
same,T/C,"dose: 108.0 mg/kg/injection, schedule: Q01DX Z (ip), vehicle: steroid suspending solution, evaluated on day 41",134 % of control
same,T/C,"dose: 108.0 mg/kg/injection, schedule: Q02DX010 (ip), vehicle: steroid suspending solution, evaluated on day 5",134 % of control
same,T/C,"dose: 108.0 mg/kg/injection, schedule: Q02DX010 (ip), vehicle: steroid suspending solution, evaluated on day 30",131 % of control
same,T/C,"dose: 108.0 mg/kg/injection, schedule: Q## X009 (ip), vehicle: steroid suspending solution",126 % of control
same,T/C,"dose: 116.0 mg/kg/injection, schedule: Q04DX002 (ip), vehicle: carboxymethylcellulose (CMC)","110, 111, 112, 120 % of control"
same,T/C,"dose: 120.0 mg/kg/injection, schedule: Q01DX Z (ip), vehicle: saline",148 % of control
same,T/C,"dose: 125.0 mg/kg/injection, schedule: Q01DX001 (ip), vehicle: saline with Tween-80",125 % of control
same,T/C,"dose: 125.0 mg/kg/injection, schedule: Q01DX005 (ip), vehicle: clinical formulation","98, 141, 150, 154, 162 (2×), 163, 169 % of control"
same,T/C,"dose: 125.0 mg/kg/injection, schedule: Q01DX Z (ip), vehicle: carboxymethylcellulose (CMC)",143 % of control
same,T/C,"dose: 128.0 mg/kg/injection, schedule: Q01DX005 (ip), vehicle: water",133 % of control
same,T/C,"dose: 137.0 mg/kg/injection, schedule: Q01DX001 (ip), vehicle: carboxymethylcellulose (CMC)",131 % of control
same,T/C,"dose: 150.0 mg/kg/injection, schedule: Q01DX001 (ip), vehicle: carboxymethylcellulose (CMC)",135 % of control
same,T/C,"dose: 150.0 mg/kg/injection, schedule: Q01DX009 (ip), vehicle: carboxymethylcellulose (CMC), evaluated on day 5",142 % of control
same,T/C,"dose: 150.0 mg/kg/injection, schedule: Q01DX009 (ip), vehicle: carboxymethylcellulose (CMC), evaluated on day 45",142 % of control
same,T/C,"dose: 150.0 mg/kg/injection, schedule: Q01DX009 (ip), vehicle: saline with Tween-80",136 % of control
same,T/C,"dose: 150.0 mg/kg/injection, schedule: Q01DX Z (ip), vehicle: carboxymethylcellulose (CMC)",130 % of control [5 of 6 alive]
same,T/C,"dose: 157.0 mg/kg/injection, schedule: Q01DX015 (ip), vehicle: carboxymethylcellulose (CMC), evaluated on day 5",139 % of control
same,T/C,"dose: 157.0 mg/kg/injection, schedule: Q01DX015 (ip), vehicle: carboxymethylcellulose (CMC), evaluated on day 45",139 % of control
same,T/C,"dose: 178.0 mg/kg/injection, schedule: Q01DX005 (ip), vehicle: water, evaluated on day 5",144 % of control
same,T/C,"dose: 178.0 mg/kg/injection, schedule: Q01DX005 (ip), vehicle: water, evaluated on day 30",144 % of control
same,T/C,"dose: 180.0 mg/kg/injection, schedule: Q01DX009 (ip), vehicle: steroid suspending solution",148 and 149 % of control
same,T/C,"dose: 180.0 mg/kg/injection, schedule: Q01DX019 (ip), vehicle: steroid suspending solution",149 % of control
same,T/C,"dose: 180.0 mg/kg/injection, schedule: Q01DX Z (ip), vehicle: carboxymethylcellulose (CMC)",142 % of control
same,T/C,"dose: 180.0 mg/kg/injection, schedule: Q01DX Z (ip), vehicle: steroid suspending solution",148 % of control
same,T/C,"dose: 180.0 mg/kg/injection, schedule: Q02DX010 (ip), vehicle: steroid suspending solution, evaluated on day 5",143 % of control
same,T/C,"dose: 180.0 mg/kg/injection, schedule: Q02DX010 (ip), vehicle: steroid suspending solution, evaluated on day 30",139 % of control
same,T/C,"dose: 180.0 mg/kg/injection, schedule: Q ##X009 (ip), vehicle: steroid suspending solution",133 % of control
same,T/C,"dose: 180.0 mg/kg/injection, schedule: Q## X009 (ip), vehicle: steroid suspending solution, evaluated on day 5",143 % of control
same,T/C,"dose: 180.0 mg/kg/injection, schedule: Q## X009 (ip), vehicle: steroid suspending solution, evaluated on day 30",130 and 139 % of control
same,T/C,"dose: 182.0 mg/kg/injection, schedule: Q01DX009 (ip), vehicle: saline with Tween-80, evaluated on day 5",135 and 144 % of control
same,T/C,"dose: 182.0 mg/kg/injection, schedule: Q01DX009 (ip), vehicle: saline with Tween-80, evaluated on day 60",135 and 144 % of control
same,T/C,"dose: 194.0 mg/kg/injection, schedule: Q01DX009 (ip), vehicle: carboxymethylcellulose (CMC)",148 % of control
same,T/C,"dose: 200.0 mg/kg/injection, schedule: Q01DX001 (ip), vehicle: carboxymethylcellulose (CMC)",142 % of control
same,T/C,"dose: 200.0 mg/kg/injection, schedule: Q01DX009 (ip), vehicle: Klucel (hydroxypropylcellulose) (HPC), evaluated on day 20",147 % of control [5 of 6 alive]
same,T/C,"dose: 200.0 mg/kg/injection, schedule: Q01DX009 (ip), vehicle: Klucel (hydroxypropylcellulose) (HPC), evaluated on day 30","114, 115, 120 (2×), 122, 124, 125, 142, 144, 146, 158, 161, 185 % of control"
same,T/C,"dose: 200.0 mg/kg/injection, schedule: Q01DX009 (ip), vehicle: water",149 % of control
same,survivor count,"dose: 200.0 mg/kg/injection, schedule: Q01DX010 (ip), vehicle: clinical formulation",6 of 6
same,T/C,"dose: 200.0 mg/kg/injection, schedule: Q01DX Z (ip), vehicle: carboxymethylcellulose (CMC)",135 and 147 % of control
same,T/C,"dose: 200.0 mg/kg/injection, schedule: Q01DX Z (oral), vehicle: carboxymethylcellulose (CMC)",142 % of control
same,T/C,"dose: 200.0 mg/kg/injection, schedule: Q01DX Z (sc), vehicle: carboxymethylcellulose (CMC)",130 % of control
same,T/C,"dose: 200.0 mg/kg/injection, schedule: Q04DX002 (ip), vehicle: Klucel (hydroxypropylcellulose) (HPC)",129 % of control
same,T/C,"dose: 200.0 mg/kg/injection, schedule: Q04DX003 (ip), vehicle: Klucel (hydroxypropylcellulose) (HPC)","107, 108, 109, 117, 121, 131, 138 % of control"
same,T/C,"dose: 200.0 mg/kg/injection, schedule: Q04DX003 (ip), vehicle: other",128 % of control
same,T/C,"dose: 200.0 mg/kg/injection, schedule: Q07DX003 (oral), vehicle: other",125 % of control
same,T/C,"dose: 200.0 mg/kg/injection, schedule: Q## X005 (ip), vehicle: carboxymethylcellulose (CMC)",142 % of control
same,survivor count,"dose: 200.0 mg/kg/injection, schedule: Q#A X Z (ip), vehicle: carboxymethylcellulose (CMC)",6 of 6
same,T/C,"dose: 232.0 mg/kg/injection, schedule: Q04DX002 (ip), vehicle: carboxymethylcellulose (CMC)","115, 116, 123, 125 % of control"
same,T/C,"dose: 250.0 mg/kg/injection, schedule: Q01DX001 (ip), vehicle: carboxymethylcellulose (CMC)",125 and 129 % of control
same,T/C,[1],"92, 100, 101 % of control [4 of 6 alive]"
same,survivor count,[1],"4 of 6, 5 of 6, 6 of 6"
same,T/C,"dose: 256.0 mg/kg/injection, schedule: Q01DX005 (ip), vehicle: water",149 % of control
same,T/C,"dose: 296.0 mg/kg/injection, schedule: Q01DX001 (ip), vehicle: carboxymethylcellulose (CMC), evaluated on day 5",98 and 123 % of control
same,T/C,"dose: 296.0 mg/kg/injection, schedule: Q01DX001 (ip), vehicle: carboxymethylcellulose (CMC), evaluated on day 45",99 and 123 % of control
same,T/C,"dose: 300.0 mg/kg/injection, schedule: Q01DX009 (ip), vehicle: saline with Tween-80",126 % of control
same,T/C,"dose: 300.0 mg/kg/injection, schedule: Q01DX009 (ip), vehicle: steroid suspending solution",143 % of control
same,survivor count,"dose: 300.0 mg/kg/injection, schedule: Q01DX Z (ip), vehicle: carboxymethylcellulose (CMC)",5 of 6
same,T/C,"dose: 300.0 mg/kg/injection, schedule: Q01DX Z (ip), vehicle: steroid suspending solution",143 % of control [7 of 8 alive]
same,T/C,"dose: 300.0 mg/kg/injection, schedule: Q02DX009 (ip), vehicle: steroid suspending solution, evaluated on day 5",135 % of control
same,T/C,"dose: 300.0 mg/kg/injection, schedule: Q02DX009 (ip), vehicle: steroid suspending solution, evaluated on day 30",132 % of control
same,T/C,"dose: 300.0 mg/kg/injection, schedule: Q## X009 (ip), vehicle: steroid suspending solution",147 % of control
same,T/C,"dose: 364.0 mg/kg/injection, schedule: Q01DX009 (ip), vehicle: saline with Tween-80, evaluated on day 5",138 and 160 % of control
same,T/C,"dose: 364.0 mg/kg/injection, schedule: Q01DX009 (ip), vehicle: saline with Tween-80, evaluated on day 60",138 and 160 % of control
same,T/C,"dose: 400.0 mg/kg/injection, schedule: Q01DX001 (ip), vehicle: carboxymethylcellulose (CMC)",139 % of control
same,T/C,"dose: 400.0 mg/kg/injection, schedule: Q01DX001 (ip), vehicle: water",125 % of control
same,survivor count,"dose: 400.0 mg/kg/injection, schedule: Q01DX006 (iv), vehicle: carboxymethylcellulose (CMC)",0 of 6
same,T/C,"dose: 400.0 mg/kg/injection, schedule: Q01DX009 (ip), vehicle: Klucel (hydroxypropylcellulose) (HPC), evaluated on day 20",100 % of control
same,T/C,"dose: 400.0 mg/kg/injection, schedule: Q01DX009 (ip), vehicle: Klucel (hydroxypropylcellulose) (HPC), evaluated on day 30","94, 96, 109, 115, 125, 143, 144, 150, 154, 184 % of control"
same,survivor count,"dose: 400.0 mg/kg/injection, schedule: Q01DX009 (ip), vehicle: Klucel (hydroxypropylcellulose) (HPC)",2 of 6 and 4 of 6
same,survivor count,"dose: 400.0 mg/kg/injection, schedule: Q01DX009 (ip), vehicle: other",0 of 6
same,T/C,"dose: 400.0 mg/kg/injection, schedule: Q01DX009 (ip), vehicle: water",126 % of control [9 of 10 alive]
same,survivor count,"dose: 400.0 mg/kg/injection, schedule: Q01DX Z (ip), vehicle: carboxymethylcellulose (CMC)",4 of 6
same,T/C,"dose: 400.0 mg/kg/injection, schedule: Q04DX002 (ip), vehicle: Klucel (hydroxypropylcellulose) (HPC)",147 % of control
same,T/C,"dose: 400.0 mg/kg/injection, schedule: Q04DX003 (ip), vehicle: Klucel (hydroxypropylcellulose) (HPC)","104, 109 (2×), 110, 114, 142 [5 of 6 alive], 143 % of control"
same,T/C,"dose: 400.0 mg/kg/injection, schedule: Q04DX003 (ip), vehicle: other",130 and 141 % of control
same,T/C,"dose: 400.0 mg/kg/injection, schedule: Q04DX003 (ip), vehicle: water",147 % of control
same,T/C,"dose: 400.0 mg/kg/injection, schedule: Q07DX003 (ip), vehicle: other",132 % of control
same,T/C,"dose: 400.0 mg/kg/injection, schedule: Q07DX003 (oral), vehicle: other",135 % of control
